Experimental data taken from article PMC7862700.
The list shows a part of the results, in another mix than the full data. At the low end of the ranking, values are background and their order means little.

Target: SPI1 (UniProt P17947)
Assay: DAPPL (digital affinity profiling via proximity ligation, sequencing)
Conditions: 10 mM Tris-HCl pH 7.5, 50 mM NaCl, 1 mM DTT, 4% glycerol, room temperature, 30 min; GST-TFs on glutathione beads, 16-mer random dsDNA library, 0.1% …; high values mean tight binding; double strand, one strand shown; scale: fold enrichment (6-mer frequency, TF over GST control)

Row | Sequence | binding signal
1 | TCTAGG | 0.996
2 | ATTGTA | 1.09
3 | ACAAGA | 0.893
4 | TAAAGC | 1.05
5 | GGATTA | 0.845
6 | ACGCAC | 1.03
7 | CGCACG | 0.937
8 | AGGTAA | 0.91
9 | CTTACT | 1.3
10 | CCGTCT | 1.43
11 | CTGGCG | 0.867
12 | GTAGCG | 0.886
13 | CCACCC | 1.22
14 | GATGTA | 1.3
15 | TCTCAT | 1.37
16 | CGCAAT | 0.969
17 | GGCAAT | 0.887
18 | TAGCGT | 0.984
19 | ACCACA | 0.991

Some of the entries so far, with each value named:
AGGTAA
  binding signal = 0.91
CCACCC
  binding signal = 1.22

(cont.)

Row | Sequence | binding signal
20 | CGCCCA | 0.916
21 | TCCTGA | 1.47
22 | ATTTTG | 1.31
23 | ACCCGT | 0.874
24 | CAGTAT | 0.929
25 | AAAATA | 1.18
26 | ATCCGT | 0.966
27 | AGGGAT | 0.696
28 | CACCGC | 1.01
29 | AGGGCT | 0.933
30 | GTGTTA | 0.918
31 | ATTAGA | 0.856
32 | GGTCAC | 0.95
33 | TGGCGT | 0.982
34 | CACTCC | 1.23
35 | CGATGG | 1.41
36 | AATGTG | 0.983
37 | AACTGT | 0.954
38 | CCACAG | 0.936
